PubChem BioAssay AID1259405, NCATS – 2018
Shown is one part, drawn at random, of about 50,000 reagents tested. About 4,000 of all reagents (8%) count as active. 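Mouse siRNA library applied to hamster cells; one well for each siRNA.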 The numbers tell different reagents against one gene apart. No sequences are given here.

Test: 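Mouse-designed siRNAs used to find CHO productivity engineering targets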 (primary screen)
Cells: Chinese hamster CHO-K1 ovary cells with stable secreted eGFP expression
Reagent: single siRNA against mouse genes, 0.8 pmol siRNA per well (2 µl of 400 nM stock)
Timing: 3 days
Measurement: 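Percent of the per-plate non-targeting control median for intracellular GFP per well by laser scanning cytometry and for cell viability by ATP luminescence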
Direction: GFP, % of control: higher = more GFP per well, higher productivity; viability (ATP), % of control: higher = more viable cells (more ATP)
Active means: 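Called active when intracellular GFP, relative to negative control, is at or above 120%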

no.	gene symbol	reagent	GFP, % of control	viability (ATP), % of control	Call
1	Or5d20	1	117	125	inactive
2	Or5d20	2	70.3	89.1	inactive
3	Or5d20	3	58.9	61.2	inactive
4	Ghr	1	54	71	inactive
5	Ghr	2	69	42.1	inactive
6	Ghr	3	32.8	33.6	inactive
7	Atad3aos	1	53.7	44	inactive
8	Atad3aos	2	99	88.2	inactive
9	Atad3aos	3	134	82.5	active
10	Meox2	1	108	125	inactive
11	Meox2	2	62.6	87.5	inactive
12	Meox2	3	60	102	inactive
13	Med22	1	129	69.8	active
14	Med22	2	93.3	69.9	inactive
15	Med22	3	109	75.8	inactive
16	Vat1	1	87.4	82.2	inactive
17	Vat1	2	69.7	53.9	inactive
18	Vat1	3	88.3	57.4	inactive
19	Pacrgl	1	83.7	86.8	inactive
20	Pacrgl	2	77.4	86.4	inactive
21	Pacrgl	3	65.1	70.4	inactive
22	Ido1	1	28.5	29.8	inactive
23	Ido1	2	64.3	74	inactive
24	Mynn	1	85.7	63.2	inactive
25	Mynn	2	74.3	79.7	inactive
26	Mynn	3	46.9	77.4	inactive
27	Srbd1	1	156	70.2	active
28	Srbd1	2	94.8	86.9	inactive
29	Srbd1	3	42.5	46.2	inactive
30	Aldh7a1	1	88.4	78.4	inactive
31	Aldh7a1	2	99.3	93.3	inactive
32	Aldh7a1	3	65.7	69.8	inactive
33	Nr4a2	1	71.2	71.9	inactive
34	Nr4a2	2	35.6	72.9	inactive
35	Nr4a2	3	51.8	69.1	inactive
36	Tcf3	1	73.3	88.6	inactive
37	Tcf3	2	83.4	70.6	inactive
38	Tcf3	3	81.4	89.2	inactive
39	Elf3	1	110	54.1	inactive
40	Elf3	2	108	103	inactive
41	Oprk1	1	70.3	65.2	inactive
42	Oprk1	2	72.8	75.6	inactive
43	Oprk1	3	110	73	inactive
44	Uggt1	1	68.6	36.1	inactive
45	Uggt1	2	77.3	118	inactive
46	Uggt1	3	61.3	66.3	inactive
47	Psme4	1	99.4	120	inactive
48	Psme4	2	60.7	72.2	inactive
49	Psme4	3	101	115	inactive
50	Srxn1	1	108	82.8	inactive
51	Srxn1	2	89.6	96.5	inactive
52	Srxn1	3	64	52	inactive
53	Vmn1r4	1	37.9	32.4	inactive
54	Vmn1r4	2	64.6	74.6	inactive
55	Vmn1r4	3	89.7	110	inactive
56	Ddx54	1	48.3	50.2	inactive
57	Ddx54	2	68.7	58.7	inactive
58	Ddx54	3	131	140	active
59	Rpl35	1	39.9	28.8	inactive
60	Rpl35	2	66.9	44.5	inactive
61	Rpl35	3	53.2	56.9	inactive
62	Tcp10a	1	50.1	66	inactive
63	Tcp10a	2	94.1	113	inactive
64	Tcp10a	3	26.4	42.3	inactive

Continued (9 carried over from the part before).
no.	gene symbol	reagent	GFP, % of control	viability (ATP), % of control	Call
56	Ddx54	1	48.3	50.2	inactive
57	Ddx54	2	68.7	58.7	inactive
58	Ddx54	3	131	140	active
59	Rpl35	1	39.9	28.8	inactive
60	Rpl35	2	66.9	44.5	inactive
61	Rpl35	3	53.2	56.9	inactive
62	Tcp10a	1	50.1	66	inactive
63	Tcp10a	2	94.1	113	inactive
64	Tcp10a	3	26.4	42.3	inactive
65	Exosc9	1	68.8	61	inactive
66	Exosc9	2	88.2	84.5	inactive
67	Exosc9	3	34.6	45.4	inactive
68	Or5m11	1	75.4	105	inactive
69	Or5m11	2	78.3	99.2	inactive
70	Or5m11	3	165	81.5	active
71	Slx9	1	64.3	77.6	inactive
72	Slx9	2	107	57.2	inactive
73	Slx9	3	51.1	74.1	inactive
74	Vps35l	1	101	71	inactive
75	Vps35l	2	78.1	78.3	inactive
76	Vps35l	3	76.1	101	inactive
77	S100a13	1	70.1	66.3	inactive
78	S100a13	2	21.2	35.1	inactive
79	S100a13	3	84.4	84.7	inactive
80	Ankrd12	1	78.1	59.8	inactive
81	Ankrd12	2	73.8	57.8	inactive
82	Ankrd12	3	97.6	89.7	inactive
83	Six6	1	67.5	83.8	inactive
84	Six6	2	63.8	51	inactive
85	Six6	3	65.1	99.5	inactive
86	Xkr6	1	58.3	79.5	inactive
87	Xkr6	2	68.1	73	inactive
88	Xkr6	3	170	134	active
89	Or51b6b	1	105	76.8	inactive
90	Or51b6b	2	80.7	73.5	inactive
91	Or51b6b	3	54.6	78.8	inactive
92	Crygd	1	67.5	67.4	inactive
93	Crygd	2	29.7	58.3	inactive
94	Crygd	3	92.9	131	inactive
95	Fmo3	1	36.4	67.5	inactive
96	Fmo3	2	75.3	83.9	inactive
97	Fmo3	3	115	70.1	inactive
98	Fbxl18	1	73.2	91.2	inactive
99	Fbxl18	2	72.8	65.2	inactive
100	Fbxl18	3	130	69.3	active
101	Nckipsd	1	90.7	83.7	inactive
102	Nckipsd	2	136	98.1	active
103	Nckipsd	3	61.6	52.6	inactive
104	Iqcg	1	77.1	85	inactive
105	Iqcg	2	90.8	107	inactive
106	Iqcg	3	67.5	66.8	inactive
107	Gm9801	1	71.6	69.6	inactive
108	Gm9801	2	33.4	62.6	inactive
109	Gm9801	3	67.8	87.7	inactive
